From PMC8867171 come the findings set out here.

The chains behind the UniProt entries cited, without tags or fusion partners. Where a name states a change or a piece, a line headed by the entry shows the natural chain unless it says otherwise. Residues count along the entry.
UniProt P14713: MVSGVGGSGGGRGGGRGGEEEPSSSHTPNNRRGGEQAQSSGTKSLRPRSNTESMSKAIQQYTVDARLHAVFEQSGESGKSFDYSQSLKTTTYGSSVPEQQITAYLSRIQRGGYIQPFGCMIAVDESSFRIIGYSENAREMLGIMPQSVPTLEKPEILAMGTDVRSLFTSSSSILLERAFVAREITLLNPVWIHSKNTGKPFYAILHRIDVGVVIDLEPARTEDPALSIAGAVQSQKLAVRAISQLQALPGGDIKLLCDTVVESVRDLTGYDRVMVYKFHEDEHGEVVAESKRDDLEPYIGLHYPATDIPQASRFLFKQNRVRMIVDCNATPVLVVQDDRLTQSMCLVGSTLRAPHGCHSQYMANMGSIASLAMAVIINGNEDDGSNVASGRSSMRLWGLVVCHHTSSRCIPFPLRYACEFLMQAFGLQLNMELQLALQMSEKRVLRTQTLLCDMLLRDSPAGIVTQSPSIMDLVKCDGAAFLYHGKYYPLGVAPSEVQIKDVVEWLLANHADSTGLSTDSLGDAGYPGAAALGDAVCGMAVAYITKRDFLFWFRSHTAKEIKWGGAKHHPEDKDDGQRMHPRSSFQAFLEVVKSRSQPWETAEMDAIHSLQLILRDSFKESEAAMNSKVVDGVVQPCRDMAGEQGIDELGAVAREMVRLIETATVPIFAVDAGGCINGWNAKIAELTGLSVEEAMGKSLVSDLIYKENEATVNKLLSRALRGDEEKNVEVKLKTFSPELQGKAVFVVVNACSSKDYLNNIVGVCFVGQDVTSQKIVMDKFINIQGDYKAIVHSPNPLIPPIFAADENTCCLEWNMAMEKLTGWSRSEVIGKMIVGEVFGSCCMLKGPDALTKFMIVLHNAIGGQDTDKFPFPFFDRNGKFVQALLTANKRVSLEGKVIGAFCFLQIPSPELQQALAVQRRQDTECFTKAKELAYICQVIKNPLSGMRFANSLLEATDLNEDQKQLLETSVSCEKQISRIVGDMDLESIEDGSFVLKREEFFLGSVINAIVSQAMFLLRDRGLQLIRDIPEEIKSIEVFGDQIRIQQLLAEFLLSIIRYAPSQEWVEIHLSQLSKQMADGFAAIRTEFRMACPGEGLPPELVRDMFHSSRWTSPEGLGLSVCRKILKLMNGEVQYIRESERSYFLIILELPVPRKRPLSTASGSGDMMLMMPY
phytochrome B C-terminal fragment (652-1172 aa) in pLexA: residues 652-1172 of P14713

Experiment [1] concerns the target T1, YFP-SMP2 (full-length SWELLMAP 2 overexpressed in transgenic Arabidopsis) (Arabidopsis thaliana) (UniProt O23174).
T1 sequence: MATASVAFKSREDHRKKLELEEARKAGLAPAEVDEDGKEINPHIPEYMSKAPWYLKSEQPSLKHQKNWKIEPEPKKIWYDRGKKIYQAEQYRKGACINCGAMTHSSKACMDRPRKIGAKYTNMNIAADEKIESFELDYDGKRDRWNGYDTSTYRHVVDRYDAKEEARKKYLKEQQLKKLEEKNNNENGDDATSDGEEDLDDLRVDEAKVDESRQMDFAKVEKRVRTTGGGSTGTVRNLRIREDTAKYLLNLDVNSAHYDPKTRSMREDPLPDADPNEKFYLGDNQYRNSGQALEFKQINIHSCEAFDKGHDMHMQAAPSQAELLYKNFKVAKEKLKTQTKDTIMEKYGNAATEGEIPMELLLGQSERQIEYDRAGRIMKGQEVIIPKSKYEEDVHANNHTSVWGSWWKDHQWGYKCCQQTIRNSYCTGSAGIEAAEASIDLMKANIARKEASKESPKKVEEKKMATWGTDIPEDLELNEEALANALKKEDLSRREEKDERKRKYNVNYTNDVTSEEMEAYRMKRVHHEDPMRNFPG
The experiment is described as follows: co-IP; YFP-SMP2 seedlings grown in the dark, transferred to red light (145 μmol/m^2·s) for 1 h; 400 μg total protein with GFP-Trap agarose, 4°C, 4 h; wash buffer with 300 mM NaCl; blots with anti-GFP and anti-phyB.

Experiment [2] has as its target phytochrome B C-terminal fragment (652-1172 aa) in pLexA (Arabidopsis thaliana) (UniProt P14713). The experiment is described as follows: two-hybrid; LexA system (Clontech), yeast strain EGY48 with p8op-LacZ; phyB fragment as bait in pLexA, SMP2 in pB42AD; SD/-His-Trp-Ura plates with 80 mg/L X-gal, blue colour, 30°C.
The target of experiment [3] is phyB-nLUC (full-length phytochrome B fused to the N-terminal fragment of firefly luciferase) (Arabidopsis thaliana) (UniProt P14713). The experiment is described as follows: split reporter; firefly luciferase complementation imaging (LCI) in Nicotiana benthamiana leaves; plants 2 d in darkness, then 24 h red light.

These are yes or no findings as the source states them, for the method shown. For part of these data: In cells and extracts the contact can be indirect. Some results given as binding are weak or reduced against the parent protein; the word gives no strength. For part of these data: Where a sequence is shown, tags or fusion partners need not be part of it.

As for “endogenous phytochrome B (phyB) (from UniProt P14713 1-1172)”, in experiment [1], the binding result was “binds”.

B1: SWELLMAP 2 (SMP2), full-length, in pB42AD (protein, UniProt O23174 1-536)
chain: MATASVAFKSREDHRKKLELEEARKAGLAPAEVDEDGKEINPHIPEYMSKAPWYLKSEQPSLKHQKNWKIEPEPKKIWYDRGKKIYQAEQYRKGACINCGAMTHSSKACMDRPRKIGAKYTNMNIAADEKIESFELDYDGKRDRWNGYDTSTYRHVVDRYDAKEEARKKYLKEQQLKKLEEKNNNENGDDATSDGEEDLDDLRVDEAKVDESRQMDFAKVEKRVRTTGGGSTGTVRNLRIREDTAKYLLNLDVNSAHYDPKTRSMREDPLPDADPNEKFYLGDNQYRNSGQALEFKQINIHSCEAFDKGHDMHMQAAPSQAELLYKNFKVAKEKLKTQTKDTIMEKYGNAATEGEIPMELLLGQSERQIEYDRAGRIMKGQEVIIPKSKYEEDVHANNHTSVWGSWWKDHQWGYKCCQQTIRNSYCTGSAGIEAAEASIDLMKANIARKEASKESPKKVEEKKMATWGTDIPEDLELNEEALANALKKEDLSRREEKDERKRKYNVNYTNDVTSEEMEAYRMKRVHHEDPMRNFPG
For the molecule B1, in experiment [2], the binding entry is given as “binds”.

B2: cLUC-SMP2 (full-length SWELLMAP 2 fused to the C-terminal fragment of firefly luciferase) (protein, UniProt O23174 1-536)
chain: MATASVAFKSREDHRKKLELEEARKAGLAPAEVDEDGKEINPHIPEYMSKAPWYLKSEQPSLKHQKNWKIEPEPKKIWYDRGKKIYQAEQYRKGACINCGAMTHSSKACMDRPRKIGAKYTNMNIAADEKIESFELDYDGKRDRWNGYDTSTYRHVVDRYDAKEEARKKYLKEQQLKKLEEKNNNENGDDATSDGEEDLDDLRVDEAKVDESRQMDFAKVEKRVRTTGGGSTGTVRNLRIREDTAKYLLNLDVNSAHYDPKTRSMREDPLPDADPNEKFYLGDNQYRNSGQALEFKQINIHSCEAFDKGHDMHMQAAPSQAELLYKNFKVAKEKLKTQTKDTIMEKYGNAATEGEIPMELLLGQSERQIEYDRAGRIMKGQEVIIPKSKYEEDVHANNHTSVWGSWWKDHQWGYKCCQQTIRNSYCTGSAGIEAAEASIDLMKANIARKEASKESPKKVEEKKMATWGTDIPEDLELNEEALANALKKEDLSRREEKDERKRKYNVNYTNDVTSEEMEAYRMKRVHHEDPMRNFPG
Consider B2, for which, in experiment [3], the binding result is “binds”.
